These are yes or no findings as the source states them, for the method shown. Some results given as binding are weak or reduced against the parent protein; the word gives no strength. For part of these data: Tags and fused reporters may be left off the sequences shown.
T1: TGF-β2 (UniProt P61812 303-414)
T1 sequence (looked up): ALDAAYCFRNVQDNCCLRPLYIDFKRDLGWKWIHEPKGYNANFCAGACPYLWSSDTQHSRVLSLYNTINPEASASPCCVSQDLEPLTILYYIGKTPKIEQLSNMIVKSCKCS

Chains of the proteins cited; added tags and fusions are not shown. Residues count along the entry.
UniProt P10600, residues 301-412: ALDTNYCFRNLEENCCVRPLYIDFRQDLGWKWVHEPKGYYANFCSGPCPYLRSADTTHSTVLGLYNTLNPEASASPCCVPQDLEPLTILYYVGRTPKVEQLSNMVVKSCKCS
UniProt P01137, residues 279-390: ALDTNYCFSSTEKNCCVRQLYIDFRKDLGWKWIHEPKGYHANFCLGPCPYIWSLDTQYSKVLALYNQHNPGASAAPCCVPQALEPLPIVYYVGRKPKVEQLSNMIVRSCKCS


Legend:
[1] = target: TGF-β3 (UniProt P10600); experiment: SPR (Biacore), 100 nM injected over 500 RUs immobilised TGF-β3
[2] = target: T2, TGF-β1 (UniProt P01137 279-390); experiment: SPR (Biacore), 100 nM injected over immobilised TGF-β1
[3] = target: TGF-β3 (UniProt P10600); experiment: SPR (Biacore), 100 nM injected over immobilised TGF-β3
[4] = target: T2, TGF-β1; experiment: SPR solution competition with TGF-β1
[5] = target: T1, TGF-β2; experiment: SPR (Biacore), 100 nM injected over immobilised TGF-β2
[6] = target: TGF-β3 (UniProt P10600); experiment: SPR (Biacore) direct binding, immobilised TGF-β3
[7] = target: T2, TGF-β1; experiment: SPR solution competition, 5 nM TGF-β1, free ligand measured on the 1D11 surface
[8] = target: T2, TGF-β1; experiment: SPR (Biacore), 100 nM injected over 500 RUs immobilised TGF-β1
[9] = target: T1, TGF-β2; experiment: SPR (Biacore) direct binding, immobilised TGF-β2
[10] = target: T2, TGF-β1; experiment: SPR (Biacore) direct binding, immobilised TGF-β1
[11] = target: TGF-β3 (UniProt P10600); experiment: SPR (Biacore), conditioned medium over immobilised TGF-β3
[12] = target: TGF-β3 (UniProt P10600); experiment: SPR (Biacore), diluted conditioned media from transfected 293 cells injected over immobilised TGF-β3, blank surface subtracted
[13] = target: TGF-β3 (UniProt P10600); experiment: SPR (Biacore), conditioned medium diluted 1:20 over 270 RUs immobilised TGF-β3, data normalised to 100 RUs max response
[14] = target: TGF-β3 (UniProt P10600); experiment: SPR (Biacore), immobilised TGF-β3

binding [1] | binding [2] | binding [3] | binding [4] | binding [5] | binding [6] | binding [7] | binding [8] | binding [9] | binding [10] | binding [11] | binding [12] | binding [13] | binding [14] | Binder
binds | binds | binds | binds | binds | binds | binds | binds | binds | binds |  |  |  |  | N-His (TβRII)^2 (designed binder, Two human TβRII ectodomains in tandem with the native 35-residue linker (IPP restored), an N-terminal 8xHis tag and a thrombin site; also called modified N-His (TβRII)^2; bivalent N-His (TβRII)^2) APMAEGGGQNHHHHHHHHGGSFNPRIPPHVQKSVNNDMIVTDNNGAVKFPQLCKFCDVRFSTCDNQKSCMSNCSITSICEKPQEVCVAVWRKNDENITLETVCHDPKLPYHDFILEDAASPKCIMKEKKKPGETFFMCSCSSDECNDNIIFSEEYNTSNPDIPPHVQKSVNNDMIVTDNNGAVKFPQLCKFCDVRFSTCDNQKSCMSNCSITSICEKPQEVCVAVWRKNDENITLETVCHDPKLPYHDFILEDAASPKCIMKEKKKPGETFFMCSCSSDECNDNIIFSEEYNTSNPD
 |  |  |  |  |  |  |  |  |  | binds | binds | binds | binds | Prototype (TβRII)^2 (designed binder) TIPPEQKLISEEDLLHVQKSVNNDMIVTDNNGAVKFPQLCKFCDVRFSTCDNQKSCMSNCSITSICEKPQEVCVAVWRKNDENITLETVCHDPKLPYHDFILEDAASPKCIMKEKKKPGETFFMCSCSSDECNDNIIFSEEYNTSNPDGGRHVQKSVNNDMIVTDNNGAVKFPQLCKFCDVRFSTCDNQKSCMSNCSITSICEKPQEVCVAVWRKNDENITLETVCHDPKLPYHDFILEDAASPKCIMKEKKKPGETFFMCSCSSDECNDNIIFSEEYNTSNPDHHHHHH
 |  |  | binds |  |  |  |  |  |  |  |  |  |  | N-His (TβRIIb)^2 (designed binder, TβRII ectodomain followed by a TβRIIb ectodomain, giving a 60-residue linker, with an N-terminal His tag; also called (TβRII)^2 trap having a 60 amino acid linker) APMAEGGGQNHHHHHHHHGGSFNPRIPPHVQKSVNNDMIVTDNNGAVKFPQLCKFCDVRFSTCDNQKSCMSNCSITSICEKPQEVCVAVWRKNDENITLETVCHDPKLPYHDFILEDAASPKCIMKEKKKPGETFFMCSCSSDECNDNIIFSEEYNTSNPDIPPHVQKSDVEMEAQKDEIICPSCNRTAHPLRHINNDMIVTDNNGAVKFPQLCKFCDVRFSTCDNQKSCMSNCSITSICEKPQEVCVAVWRKNDENITLETVCHDPKLPYHDFILEDAASPKCIMKEKKKPGETFFMCSCSSDECNDNIIFSEEYNTSNPD
